Substitutions are numbered along the chain they refer to. These are yes or no findings as the source states them, for the method shown. In cells and extracts the contact can be indirect. Some entries that bind do so weakly or less than the wild type. Tags and fused reporters may be left off the sequences shown.
Legend:
[1] = biological target: T1, FLAG-tagged CMTR2 K117N mutant (human) (UniProt Q8IYT2); assay: co-IP; anti-FLAG immunoprecipitation from lysates of doxycycline-induced Flp-in T-REx 293 cells (20 mM HEPES pH 7.5, 300 mM NaCl, 0.5% NP-40, 4 °C); immunoblot for SNRNP70
T1 sequence: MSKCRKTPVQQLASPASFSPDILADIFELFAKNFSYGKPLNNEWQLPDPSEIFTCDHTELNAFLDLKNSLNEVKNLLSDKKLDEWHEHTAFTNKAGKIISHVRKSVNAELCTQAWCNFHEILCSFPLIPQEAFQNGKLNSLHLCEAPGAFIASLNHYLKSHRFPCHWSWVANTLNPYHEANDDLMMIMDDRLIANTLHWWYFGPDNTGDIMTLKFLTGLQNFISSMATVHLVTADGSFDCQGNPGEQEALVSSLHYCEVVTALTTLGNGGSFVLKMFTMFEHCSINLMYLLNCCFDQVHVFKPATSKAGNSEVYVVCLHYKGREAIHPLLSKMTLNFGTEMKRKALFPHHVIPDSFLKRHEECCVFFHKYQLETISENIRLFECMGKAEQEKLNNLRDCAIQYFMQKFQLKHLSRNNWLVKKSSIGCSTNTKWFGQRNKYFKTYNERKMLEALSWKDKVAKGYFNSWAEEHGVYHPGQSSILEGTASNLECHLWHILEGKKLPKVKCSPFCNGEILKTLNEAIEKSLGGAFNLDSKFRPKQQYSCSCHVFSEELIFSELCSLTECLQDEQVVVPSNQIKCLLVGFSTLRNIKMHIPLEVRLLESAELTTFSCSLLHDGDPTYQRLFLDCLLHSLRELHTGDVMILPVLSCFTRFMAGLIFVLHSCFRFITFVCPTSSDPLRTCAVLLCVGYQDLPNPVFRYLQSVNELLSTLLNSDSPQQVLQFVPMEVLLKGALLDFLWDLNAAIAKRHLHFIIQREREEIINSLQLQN

Amino acid sequences for entries named in this document (tags omitted).
UniProt P08621: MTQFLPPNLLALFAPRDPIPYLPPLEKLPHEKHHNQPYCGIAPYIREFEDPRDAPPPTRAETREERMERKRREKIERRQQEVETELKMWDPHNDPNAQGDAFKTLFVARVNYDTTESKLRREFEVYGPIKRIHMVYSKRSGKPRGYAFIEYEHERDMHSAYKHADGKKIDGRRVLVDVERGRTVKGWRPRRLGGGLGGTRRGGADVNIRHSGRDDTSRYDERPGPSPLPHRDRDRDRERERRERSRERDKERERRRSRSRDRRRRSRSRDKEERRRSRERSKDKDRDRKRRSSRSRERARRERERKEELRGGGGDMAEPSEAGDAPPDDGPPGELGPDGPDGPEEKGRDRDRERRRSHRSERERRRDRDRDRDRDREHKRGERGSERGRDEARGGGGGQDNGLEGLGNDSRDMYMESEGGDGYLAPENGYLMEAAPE

[2] = biological target: T2, FLAG-tagged WT CMTR2 (Cap-specific mRNA (nucleoside-2'-O-)-methyltransferase 2) (human) (UniProt Q8IYT2); assay: as above
T2 sequence: T1 sequence with N117K

Which results are given for “SNRNP70 (U1 snRNP component) (from UniProt P08621 1-437)”?
binding [1]: no binding; binding [2]: binds

From article PMC12592727
